Paper doi:10.1101/2025.02.12.637848
Results are given in words; binding and its absence hold for the method and conditions named. Binding seen in cells or lysates may run through a third protein. Binding calls can cover weak binding; strength is not graded here. For some of these results: Where a sequence is shown, tags or fusion partners need not be part of it.

By UniProt entry, the sequences of proteins in these tests, tags left out. Where a name states a change or a piece, a line headed by the entry shows the natural chain unless it says otherwise.
UniProt Q03370: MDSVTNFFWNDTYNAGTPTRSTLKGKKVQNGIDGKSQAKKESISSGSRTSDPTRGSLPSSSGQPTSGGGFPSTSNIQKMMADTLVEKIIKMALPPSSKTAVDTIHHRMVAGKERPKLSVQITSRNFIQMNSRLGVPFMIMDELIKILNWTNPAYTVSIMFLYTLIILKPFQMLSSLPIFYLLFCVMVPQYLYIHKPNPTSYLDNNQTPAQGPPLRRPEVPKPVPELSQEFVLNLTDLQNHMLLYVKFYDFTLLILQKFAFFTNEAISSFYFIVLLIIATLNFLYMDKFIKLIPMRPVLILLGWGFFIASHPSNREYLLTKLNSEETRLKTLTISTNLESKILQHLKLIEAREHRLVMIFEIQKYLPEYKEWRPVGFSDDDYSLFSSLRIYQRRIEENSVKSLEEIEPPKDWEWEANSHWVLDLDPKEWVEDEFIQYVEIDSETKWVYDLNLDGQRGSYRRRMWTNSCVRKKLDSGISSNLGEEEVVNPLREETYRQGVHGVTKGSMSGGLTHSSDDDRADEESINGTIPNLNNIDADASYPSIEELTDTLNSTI

T1: Pex28-13xMyc (Saccharomyces cerevisiae) (UniProt P38848)
T1 sequence: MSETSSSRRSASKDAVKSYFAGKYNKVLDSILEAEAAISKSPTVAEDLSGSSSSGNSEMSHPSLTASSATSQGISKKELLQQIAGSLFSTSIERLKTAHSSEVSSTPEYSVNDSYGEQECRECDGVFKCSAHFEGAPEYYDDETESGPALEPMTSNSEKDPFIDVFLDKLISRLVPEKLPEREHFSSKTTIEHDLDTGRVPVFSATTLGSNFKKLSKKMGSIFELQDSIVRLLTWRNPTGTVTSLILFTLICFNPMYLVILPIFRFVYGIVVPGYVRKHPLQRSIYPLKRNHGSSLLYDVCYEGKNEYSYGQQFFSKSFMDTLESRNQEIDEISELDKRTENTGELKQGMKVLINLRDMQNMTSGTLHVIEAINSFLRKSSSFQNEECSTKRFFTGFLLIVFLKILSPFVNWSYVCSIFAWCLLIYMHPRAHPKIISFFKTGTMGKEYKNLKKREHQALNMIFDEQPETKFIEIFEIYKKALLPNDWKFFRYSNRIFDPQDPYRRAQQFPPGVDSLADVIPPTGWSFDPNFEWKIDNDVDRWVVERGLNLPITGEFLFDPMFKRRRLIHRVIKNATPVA

T2: Pex32-3xHA (Saccharomyces cerevisiae) (UniProt P38292)
T2 sequence: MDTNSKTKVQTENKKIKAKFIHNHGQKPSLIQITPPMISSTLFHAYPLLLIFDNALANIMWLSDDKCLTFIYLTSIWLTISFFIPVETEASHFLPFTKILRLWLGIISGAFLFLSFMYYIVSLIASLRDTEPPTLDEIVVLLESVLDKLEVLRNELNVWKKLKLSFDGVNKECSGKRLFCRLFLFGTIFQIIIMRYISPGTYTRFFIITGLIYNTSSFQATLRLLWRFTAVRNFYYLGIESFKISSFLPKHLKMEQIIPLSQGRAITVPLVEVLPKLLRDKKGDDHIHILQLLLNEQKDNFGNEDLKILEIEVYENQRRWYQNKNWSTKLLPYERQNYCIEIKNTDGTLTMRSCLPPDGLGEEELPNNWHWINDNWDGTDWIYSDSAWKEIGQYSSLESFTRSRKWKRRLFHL


Assays:
Assay in all cases: co-IP
[1] = molecular target: T1, Pex28-13xMyc (Saccharomyces cerevisiae)
[2] = molecular target: T2, Pex32-3xHA (Saccharomyces cerevisiae)
[3] = molecular target: Pex32^DysFΔ (Saccharomyces cerevisiae) (UniProt P38292)
[4] = molecular target: Pex29^DysFΔ (Saccharomyces cerevisiae) (UniProt Q03370)

| Molecule | binding [1] | binding [2] | binding [3] | binding [4] |
| --- | --- | --- | --- | --- |
| Pex30^DysFΔ (from UniProt Q06169) | binds | binds | – | – |
| Pex30 (protein, UniProt Q06169 1-523) MSGNTTNVHETRAKFAETLQPRIGGNTTKVIRAALEKNEAESGVSEDNDNGSLEKVNVATSPLLTSTPPTISKALVKLYPYLILIDEFLNVVTWTGKNIWSSVLMLCLFITTVEYFETLVKYFGHLAIIAILWGYSLLDNYIEGTLSSSPTLEDIALLMNRVSLKSDILLSPMVNLGTQDIQRLLYTTVILSPIYVMITWLLLPPRSLMLMVGMFLLTYHSPWSKVARRLLWKFKIVRLLVFYVTGLDLGGINKDQGIFATVQKQVKKLASTENSNGVLSDSKPIRFTYVLYENQRRWLGIGWKPSMLSYERTPWTDEFLNEAPSPENFHLPEETNTMVWRWVDKTWRLDMTNDGAIQVPNSKARTSADPSPDEGFIYYDNTWKKPSKEDSFSKYTRRRRWVRTAELVKTSDFDESVINSNRNSAIEQKVEENSTNGLTAEQELGSNKQEKDNAKKVGEPTTEETKEFAEASNINEGEFERISSTDEEVLKSRARDRLAKVLDDTEEKEQSNPTIGRDSKKAV | – | – | binds | binds |
